Source: article doi:10.1101/346619
No constants are given. Whether binding was seen depends on the method and setting. For some assays here: In cells and extracts the contact can be indirect. Some entries that bind do so weakly or less than the wild type. For some assays here: Sequences can lack the tags named with a protein.

Sequences of proteins named here, by UniProt entry; tags and fusion partners are left off.
UniProt O75376, whole entry: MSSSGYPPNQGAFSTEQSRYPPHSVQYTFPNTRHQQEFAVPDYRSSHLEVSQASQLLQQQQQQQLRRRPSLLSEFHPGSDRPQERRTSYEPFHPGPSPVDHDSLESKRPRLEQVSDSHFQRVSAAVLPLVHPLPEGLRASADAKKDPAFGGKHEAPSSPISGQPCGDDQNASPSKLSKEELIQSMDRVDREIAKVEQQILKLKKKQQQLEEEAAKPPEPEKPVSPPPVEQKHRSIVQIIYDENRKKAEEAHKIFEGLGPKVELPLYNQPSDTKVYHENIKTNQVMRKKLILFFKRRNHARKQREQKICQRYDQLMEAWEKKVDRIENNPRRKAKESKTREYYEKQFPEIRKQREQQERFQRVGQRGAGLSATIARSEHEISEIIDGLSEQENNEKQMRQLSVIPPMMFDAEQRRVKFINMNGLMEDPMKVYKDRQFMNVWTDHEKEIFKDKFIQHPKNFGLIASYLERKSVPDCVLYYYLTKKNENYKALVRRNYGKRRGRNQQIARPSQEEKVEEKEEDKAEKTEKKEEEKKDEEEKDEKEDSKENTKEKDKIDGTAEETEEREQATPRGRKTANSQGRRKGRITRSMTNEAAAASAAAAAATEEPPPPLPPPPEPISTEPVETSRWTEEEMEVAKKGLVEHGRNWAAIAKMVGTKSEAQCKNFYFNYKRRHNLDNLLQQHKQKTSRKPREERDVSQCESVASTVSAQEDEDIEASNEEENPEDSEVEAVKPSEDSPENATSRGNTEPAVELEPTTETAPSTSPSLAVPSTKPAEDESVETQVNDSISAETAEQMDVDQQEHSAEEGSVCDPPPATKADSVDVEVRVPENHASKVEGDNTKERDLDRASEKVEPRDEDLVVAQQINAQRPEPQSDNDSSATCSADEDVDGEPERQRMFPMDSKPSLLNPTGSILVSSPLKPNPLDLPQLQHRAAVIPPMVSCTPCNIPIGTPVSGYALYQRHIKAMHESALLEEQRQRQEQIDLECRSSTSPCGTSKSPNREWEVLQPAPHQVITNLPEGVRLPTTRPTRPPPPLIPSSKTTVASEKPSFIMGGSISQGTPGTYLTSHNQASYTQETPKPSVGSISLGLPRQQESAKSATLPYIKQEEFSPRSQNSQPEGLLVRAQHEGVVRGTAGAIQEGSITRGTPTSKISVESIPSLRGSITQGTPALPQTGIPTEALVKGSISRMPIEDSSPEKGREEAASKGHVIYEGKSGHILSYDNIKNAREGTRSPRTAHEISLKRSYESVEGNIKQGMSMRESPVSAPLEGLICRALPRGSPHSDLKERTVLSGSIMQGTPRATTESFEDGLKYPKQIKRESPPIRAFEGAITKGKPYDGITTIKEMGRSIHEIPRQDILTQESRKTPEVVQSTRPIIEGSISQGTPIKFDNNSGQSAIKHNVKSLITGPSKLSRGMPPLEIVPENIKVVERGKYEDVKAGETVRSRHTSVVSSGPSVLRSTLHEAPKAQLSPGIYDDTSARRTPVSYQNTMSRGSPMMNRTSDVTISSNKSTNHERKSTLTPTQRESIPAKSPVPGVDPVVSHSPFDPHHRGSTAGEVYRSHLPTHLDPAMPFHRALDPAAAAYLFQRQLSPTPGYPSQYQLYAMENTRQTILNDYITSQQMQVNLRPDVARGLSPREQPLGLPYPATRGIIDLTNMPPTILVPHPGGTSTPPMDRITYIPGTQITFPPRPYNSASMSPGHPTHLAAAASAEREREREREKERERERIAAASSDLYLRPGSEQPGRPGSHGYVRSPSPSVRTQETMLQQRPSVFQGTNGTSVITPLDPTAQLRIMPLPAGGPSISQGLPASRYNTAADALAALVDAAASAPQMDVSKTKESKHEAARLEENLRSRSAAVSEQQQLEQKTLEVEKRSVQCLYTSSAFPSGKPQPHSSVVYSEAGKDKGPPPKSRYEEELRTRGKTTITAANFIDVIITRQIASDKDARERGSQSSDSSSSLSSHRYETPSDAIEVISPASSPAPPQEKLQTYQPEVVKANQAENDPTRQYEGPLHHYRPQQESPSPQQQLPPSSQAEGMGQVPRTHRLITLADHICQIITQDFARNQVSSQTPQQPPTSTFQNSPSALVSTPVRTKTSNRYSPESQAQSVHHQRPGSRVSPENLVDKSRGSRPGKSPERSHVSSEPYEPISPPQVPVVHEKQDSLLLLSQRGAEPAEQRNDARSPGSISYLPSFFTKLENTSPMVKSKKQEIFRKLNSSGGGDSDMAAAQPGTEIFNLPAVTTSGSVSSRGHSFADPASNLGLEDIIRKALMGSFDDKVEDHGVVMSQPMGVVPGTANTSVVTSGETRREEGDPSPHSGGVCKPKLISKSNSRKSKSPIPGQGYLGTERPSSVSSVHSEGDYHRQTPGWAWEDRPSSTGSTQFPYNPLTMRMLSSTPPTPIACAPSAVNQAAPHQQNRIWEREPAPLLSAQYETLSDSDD

T1: TR2 (NR2C1), two-hybrid fusion, Q505F1
T1 chain: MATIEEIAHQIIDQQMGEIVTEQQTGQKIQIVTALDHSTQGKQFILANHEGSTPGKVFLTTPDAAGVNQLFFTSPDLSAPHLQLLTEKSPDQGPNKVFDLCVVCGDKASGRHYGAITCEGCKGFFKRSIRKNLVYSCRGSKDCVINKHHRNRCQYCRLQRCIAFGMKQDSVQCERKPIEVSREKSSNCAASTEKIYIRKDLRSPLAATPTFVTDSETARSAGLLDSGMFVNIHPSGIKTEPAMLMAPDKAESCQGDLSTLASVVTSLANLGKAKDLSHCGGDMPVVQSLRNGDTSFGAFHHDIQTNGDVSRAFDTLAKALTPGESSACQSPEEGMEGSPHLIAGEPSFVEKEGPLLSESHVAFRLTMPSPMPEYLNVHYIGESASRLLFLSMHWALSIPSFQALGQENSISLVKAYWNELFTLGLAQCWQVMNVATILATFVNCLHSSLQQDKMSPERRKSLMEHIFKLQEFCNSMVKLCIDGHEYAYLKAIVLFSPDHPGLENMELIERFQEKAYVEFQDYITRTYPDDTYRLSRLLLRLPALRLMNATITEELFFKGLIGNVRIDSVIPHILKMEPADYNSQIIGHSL

B1: TR4 (NR2C2), endogenous (protein, UniProt P49116 1-596)
chain: MTSPSPRIQIISTDSAVASPQRIQIVTDQQTGQKIQIVTAVDASGSPKQQFILTSPDGAGTGKVILASPETSSAKQLIFTTSDNLVPGRIQIVTDSASVERLLGKTDVQRPQVVEYCVVCGDKASGRHYGAVSCEGCKGFFKRSVRKNLTYSCRSNQDCIINKHHRNRCQFCRLKKCLEMGMKMESVQSERKPFDVQREKPSNCAASTEKIYIRKDLRSPLIATPTFVADKDGARQTGLLDPGMLVNIQQPLIREDGTVLLATDSKAETSQGALGTLANVVTSLANLSESLNNGDTSEIQPEDQSASEITRAFDTLAKALNTTDSSSSPSLADGIDTSGGGSIHVISRDQSTPIIEVEGPLLSDTHVTFKLTMPSPMPEYLNVHYICESASRLLFLSMHWARSIPAFQALGQDCNTSLVRACWNELFTLGLAQCAQVMSLSTILAAIVNHLQNSIQEDKLSGDRIKQVMEHIWKLQEFCNSMAKLDIDGYEYAYLKAIVLFSPDHPGLTSTSQIEKFQEKAQMELQDYVQKTYSEDTYRLARILVRLPALRLMSSNITEELFFTGLIGNVSIDSIIPYILKMETAEYNGQITGASL
B2: HDAC3, two-hybrid fusion, O88895 1-428 (enzyme)
chain: MAKTVAYFYDPDVGNFHYGAGHPMKPHRLALTHSLVLHYGLYKKMIVFKPYQASQHDMCRFHSEDYIDFLQRVSPTNMQGFTKSLNAFNVGDDCPVFPGLFEFCSRYTGASLQGATQLNNKICDIAINWAGGLHHAKKFEASGFCYVNDIVIGILELLKYHPRVLYIDIDIHHGDGVQEAFYLTDRVMTVSFHKYGNYFFPGTGDMYEVGAESGRYYCLNVPLRDGIDDQSYKHLFQPVISQVVDFYQPTCIVLQCGADSLGCDRLGCFNLSIRGHGECVEYVKSFNIPLLVLGGGGYTVRNVARCWTYETSLLVEEAISEELPYSEYFEYFAPDFTLHPDVSTRIENQNSRQYLDQIRQTIFENLKMLNHAPSVQIHDVPADLLTYDRTDEADAEERGPEENYSRPEAPNEFYDGDHDNDKESDVEI

How the values were obtained:
[1] = biological target: nuclear receptor corepressor-1 (NCoR1), endogenous (human (endogenous in HUDEP-2)) (UniProt O75376); assay: co-IP
[2] = biological target: T1, TR2 (NR2C1), two-hybrid fusion, Q505F1; assay: two-hybrid; conditions: remark: other sources report otherwise

| Binder | binding [1] | binding [2] |
| --- | --- | --- |
| B1 | binds | – |
| B2 | – | no binding |
